Consider two molecules from PMC11405016.

Results are given in words; binding and its absence hold for the method and conditions named. Binding seen in cells or lysates may run through a third protein. Some entries that bind do so weakly or less than the wild type. Tags and fused reporters may be left off the sequences shown.

The target of this experiment is T1, Prominin 1 (Prom1), human S1 isoform, C-terminally Strep-tagged (Prom1-Strep), wild type (human) (UniProt O43490).
T1 sequence: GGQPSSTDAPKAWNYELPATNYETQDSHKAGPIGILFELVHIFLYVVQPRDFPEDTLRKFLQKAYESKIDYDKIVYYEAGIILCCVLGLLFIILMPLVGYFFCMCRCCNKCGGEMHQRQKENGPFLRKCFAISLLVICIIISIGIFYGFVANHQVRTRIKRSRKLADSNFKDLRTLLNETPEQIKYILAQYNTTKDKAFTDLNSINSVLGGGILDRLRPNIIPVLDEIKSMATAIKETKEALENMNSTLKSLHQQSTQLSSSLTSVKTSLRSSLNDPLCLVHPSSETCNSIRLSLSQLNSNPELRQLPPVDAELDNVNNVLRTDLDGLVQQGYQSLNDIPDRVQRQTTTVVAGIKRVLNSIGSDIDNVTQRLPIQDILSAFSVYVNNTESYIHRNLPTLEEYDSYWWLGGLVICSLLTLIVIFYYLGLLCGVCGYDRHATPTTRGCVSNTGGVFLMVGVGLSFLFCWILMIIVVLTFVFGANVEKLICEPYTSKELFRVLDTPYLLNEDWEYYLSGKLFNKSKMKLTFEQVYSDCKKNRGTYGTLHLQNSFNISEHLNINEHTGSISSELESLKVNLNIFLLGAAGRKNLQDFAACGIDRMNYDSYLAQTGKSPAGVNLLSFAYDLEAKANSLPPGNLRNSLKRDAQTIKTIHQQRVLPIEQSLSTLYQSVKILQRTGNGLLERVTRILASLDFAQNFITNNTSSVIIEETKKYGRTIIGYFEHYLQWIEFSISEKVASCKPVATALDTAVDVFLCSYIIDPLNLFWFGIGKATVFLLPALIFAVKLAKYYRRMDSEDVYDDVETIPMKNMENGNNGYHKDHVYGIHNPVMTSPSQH
Put plainly: co-IP; EVs from co-transfected Expi293 cells, purified and solubilised with 1% DDM (25 mM HEPES-NaOH pH 7.8, 150 mM NaCl, 5 mM CaCl2); Prom1-Strep captured on StrepTactinXT 4Flow resin, 1 hr at 4°C; co-purified mNeonGreen or mScarlet fluorescence on the beads measured by montaged epifluorescence imaging, normalised to mTagBFP2-Strep on the resin.

B1: Prominin 1 (Prom1), human S1 isoform, C-terminally Strep-tagged (Prom1-Strep), wild type (protein, UniProt O43490-2 20-856)
chain: T1 sequence
As for B1, the binding entry is recorded as “binds”.

B2: Protocadherin-21 (Pcdh21), human isoform 1, mNeonGreen-tagged (protein, UniProt Q96JP9-1 20-859)
chain: QANFAPHFFDNGVGSTNGNMALFSLPEDTPVGSHVYTLNGTDPEGDPISYHISFDPSTRSVFSVDPTFGNITLVEELDREREDEIEAIISISDGLNLVAEKVVILVTDANDEAPRFIQEPYVALVPEDIPAGSIIFKVHAVDRDTGSGGSVTYFLQNLHSPFAVDRHSGVLRLQAGATLDYERSRTHYITVVAKDGGGRLHGADVVFSATTTVTVNVEDVQDMAPVFVGTPYYGYVYEDTLPGSEVLKVVAMDGDRGKPNRILYSLVNGNDGAFEINETSGAISITQSPAQLQREVYELHVQVTEMSPAGSPAAQATVPVTIRIVDLNNHPPTFYGESGPQNRFELSMNEHPPQGEILRGLKITVNDSDQGANAKFNLQLVGPRGIFRVVPQTVLNEAQVTIIVENSAAIDFEKSKVLTFKLLAVEVNTPEKFSSTADVVIQLLDTNDNVPKFDSLYYVARIPENAPGGSSVVAVTAVDPDTGPWGEVKYSTYGTGADLFLIHPSTGLIYTQPWASLDAEATARYNFYVKAEDMEGKYSVAEVFITLLDVNDHPPQFGKSVQKKTMVLGTPVKIEAIDEDAEEPNNLVDYSITHAEPANVFDINSHTGEIWLKNSIRSLDALHNITPGRDCLWSLEVQAKDRGSPSFSTTALLKIDITDAETLSRSPMAAFLIQTKDNPMKAVGVLAGTMATVVAITVLISTATFWRNKKSNKVLPMRRVLRKRPSPAPRTIRIEWLKSKSTKAATKFMLKEKPPNENCNNNSPESSLLPRAPALPPPPSVAPSTGAAQWTVPTVSGSLTPQPTQPPPKPKTMGSPVQSTLISELKQKFEKKSVHNKAYF
As for B2, the binding result is listed as “binds”.
